These results are taken from PMC12177104.

By UniProt entry, the sequences of proteins in these tests, tags left out.
UniProt P00558: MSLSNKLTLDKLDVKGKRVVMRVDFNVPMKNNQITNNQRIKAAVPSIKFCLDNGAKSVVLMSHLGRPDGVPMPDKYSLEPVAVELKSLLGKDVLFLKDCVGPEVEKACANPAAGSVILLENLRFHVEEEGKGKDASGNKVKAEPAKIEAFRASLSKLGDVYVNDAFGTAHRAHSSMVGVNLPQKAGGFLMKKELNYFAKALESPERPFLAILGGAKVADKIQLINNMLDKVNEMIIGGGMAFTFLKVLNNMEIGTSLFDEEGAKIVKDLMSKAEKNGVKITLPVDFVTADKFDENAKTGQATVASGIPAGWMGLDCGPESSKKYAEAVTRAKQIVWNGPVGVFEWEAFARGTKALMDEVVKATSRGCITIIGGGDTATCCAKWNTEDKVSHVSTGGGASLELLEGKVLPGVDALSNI
UniProt P35579: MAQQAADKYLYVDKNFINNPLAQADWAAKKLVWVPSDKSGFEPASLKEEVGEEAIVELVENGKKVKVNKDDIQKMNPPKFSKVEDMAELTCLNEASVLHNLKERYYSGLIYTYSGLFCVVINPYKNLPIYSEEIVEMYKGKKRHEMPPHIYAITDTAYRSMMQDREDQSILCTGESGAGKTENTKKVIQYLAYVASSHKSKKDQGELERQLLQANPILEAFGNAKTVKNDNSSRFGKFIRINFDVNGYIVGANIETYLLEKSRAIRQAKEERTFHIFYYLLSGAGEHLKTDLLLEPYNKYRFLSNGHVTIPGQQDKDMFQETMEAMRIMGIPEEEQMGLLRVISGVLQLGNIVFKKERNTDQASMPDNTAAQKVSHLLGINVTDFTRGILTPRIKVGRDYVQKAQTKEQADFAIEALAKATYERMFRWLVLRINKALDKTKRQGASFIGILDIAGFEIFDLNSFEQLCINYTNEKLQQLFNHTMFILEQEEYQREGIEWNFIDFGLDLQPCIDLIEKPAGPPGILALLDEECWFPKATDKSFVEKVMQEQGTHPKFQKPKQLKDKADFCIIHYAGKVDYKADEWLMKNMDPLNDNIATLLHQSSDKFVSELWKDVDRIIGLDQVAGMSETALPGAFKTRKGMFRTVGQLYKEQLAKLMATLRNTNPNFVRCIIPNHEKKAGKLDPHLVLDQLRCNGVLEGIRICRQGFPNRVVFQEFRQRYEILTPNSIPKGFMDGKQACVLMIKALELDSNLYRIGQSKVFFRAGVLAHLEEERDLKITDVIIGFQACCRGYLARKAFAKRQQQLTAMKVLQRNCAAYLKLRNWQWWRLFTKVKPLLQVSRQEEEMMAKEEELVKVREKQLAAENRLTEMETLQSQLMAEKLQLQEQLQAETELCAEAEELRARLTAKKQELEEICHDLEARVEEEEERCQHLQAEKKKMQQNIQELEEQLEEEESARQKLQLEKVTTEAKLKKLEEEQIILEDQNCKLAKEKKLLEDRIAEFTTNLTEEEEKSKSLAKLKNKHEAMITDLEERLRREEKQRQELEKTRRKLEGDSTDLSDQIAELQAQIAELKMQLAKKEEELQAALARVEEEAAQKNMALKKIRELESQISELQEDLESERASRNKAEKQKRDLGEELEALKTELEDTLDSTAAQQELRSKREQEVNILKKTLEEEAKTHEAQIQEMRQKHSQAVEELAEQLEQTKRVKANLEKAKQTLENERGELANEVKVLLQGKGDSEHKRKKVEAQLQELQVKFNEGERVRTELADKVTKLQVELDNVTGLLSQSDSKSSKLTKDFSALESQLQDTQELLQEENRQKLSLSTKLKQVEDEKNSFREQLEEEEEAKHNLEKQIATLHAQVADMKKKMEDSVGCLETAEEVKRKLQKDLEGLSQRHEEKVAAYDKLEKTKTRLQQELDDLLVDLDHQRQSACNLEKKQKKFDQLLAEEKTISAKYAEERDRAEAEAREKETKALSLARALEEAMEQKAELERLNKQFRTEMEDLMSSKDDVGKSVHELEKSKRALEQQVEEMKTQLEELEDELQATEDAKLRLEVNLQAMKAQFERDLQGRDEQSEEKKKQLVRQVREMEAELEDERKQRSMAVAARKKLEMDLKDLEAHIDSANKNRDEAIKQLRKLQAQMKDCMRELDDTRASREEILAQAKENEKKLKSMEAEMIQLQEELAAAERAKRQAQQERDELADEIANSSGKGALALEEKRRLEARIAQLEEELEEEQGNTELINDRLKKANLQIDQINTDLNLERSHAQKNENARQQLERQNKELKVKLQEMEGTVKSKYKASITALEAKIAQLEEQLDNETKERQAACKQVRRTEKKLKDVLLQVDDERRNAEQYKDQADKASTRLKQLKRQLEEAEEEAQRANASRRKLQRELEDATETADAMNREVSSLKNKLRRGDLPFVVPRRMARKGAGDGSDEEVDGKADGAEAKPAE

These are yes or no findings as the source states them, for the method shown. Binding seen in cells or lysates may run through a third protein. A yes stands for co-enrichment or nearness to the bait. Other partners may have been found.

This assay deals with Phosphoglycerate kinase 1 (PGK1) (UniProt P00558). Kind of assay: affinity purification with mass spectrometry; co-immunoprecipitation of PGK1 from KYSE150 ESCC cells followed by mass spectrometry; hits ranked by protein score.

“myosin-9 (MYH9), heavy chain of non-muscle myosin IIA (from UniProt P35579 1-1960)”: the binding result is reported as “binds”.
